From PubChem BioAssay AID248 (DTP/NCI, 2004)
The list does not hold the whole screen: it gathers tests that were run many times, whatever their T/C, doses with no T/C, and many T/C values between a quarter and a half above the control. Further doses and runs are listed elsewhere. T/C is the treated group as % of the vehicle group. Some entries give survivors of the animals treated and no T/C: the source holds a T/C of zero for them, seemingly a mark for toxic or unscored doses. Some doses without a T/C left all or most animals alive at the check, yet need not have been tolerated: survival well below the control is almost never listed, so the zero probably covers shortened survival too. Counts of survivors are from the toxicity check (mostly the fifth day) where no day follows; animals may have died later. Schedule codes are those of the source, read here as Q, the interval in days (D) or hours (H), X, the number of doses. Some molecules as drawn cover several salts, stereoisomers or complexes of the source; a dose is that of the sample tested. Where survival is the endpoint, this PubChem deposit counts one and a half times the control or more as active, and values a quarter to a half above the control carry no call in these data; other NCI protocols may use other cut-offs. Some entries were tested several times; the values are given in rising order.

Test system: L1210 leukemia ip in BDF1 mice, survival T/C
Test: NCI In Vivo Anticancer Drug Screen. Data for tumor model L1210 Leukemia (intraperitoneal) in B6D2F1 (BDF1) mice
Conditions: T/C endpoint: mean survival time, higher T/C = longer survival
[1] = dose: 400.0 mg/kg/injection, schedule: Q01DX001 (ip), vehicle: saline
[2] = dose: 100.0 mg/kg/injection, schedule: Q04DX003 (ip), vehicle: saline with Tween-80
[3] = dose: 200.0 mg/kg/injection, schedule: Q04DX003 (ip), vehicle: saline with Tween-80
[4] = dose: 400.0 mg/kg/injection, schedule: Q04DX003 (ip), vehicle: saline with Tween-80

## O=S(O)c1ncnc2nc[nH]c12
dose: 100.0 mg/kg/injection, schedule: Q01DX009 (ip), vehicle: saline
  T/C: 129 % of control
dose: 200.0 mg/kg/injection, schedule: Q01DX009 (ip), vehicle: saline
  T/C: 131 % of control
dose: 265.0 mg/kg/injection, schedule: Q01DX009 (ip), vehicle: saline
  T/C: 127 % of control
dose: 400.0 mg/kg/injection, schedule: Q01DX009 (ip), vehicle: saline
  T/C: 136 and 148 % of control

## C=CCSc1ccccc1C
[1]
  survivor count: 2 of 6

## NCc1ccc(OCc2nc(N)nc(N)c2-c2ccc(Cl)cc2)cc1
dose: 200.0 mg/kg/injection, schedule: Q01DX001 (ip), vehicle: saline with Tween-80
  survivor count: 3 of 6
dose: 400.0 mg/kg/injection, schedule: Q01DX001 (ip), vehicle: saline with Tween-80
  survivor count: 0 of 6

## O=[N+]([O-])c1ncc[nH]1
[1]
  survivor count: 0 of 4

## S=C1NCc2ccccc2N1
dose: 100.0 mg/kg/injection, schedule: Q04DX003 (ip), vehicle: Klucel (hydroxypropylcellulose) (HPC)
  survivor count: 1 of 6
dose: 200.0 mg/kg/injection, schedule: Q01DX001 (ip), vehicle: Klucel (hydroxypropylcellulose) (HPC)
  survivor count: 0 of 3
dose: 200.0 mg/kg/injection, schedule: Q04DX003 (ip), vehicle: Klucel (hydroxypropylcellulose) (HPC)
  survivor count: 0 of 6
dose: 400.0 mg/kg/injection, schedule: Q01DX001 (ip), vehicle: Klucel (hydroxypropylcellulose) (HPC)
  survivor count: 0 of 3
dose: 400.0 mg/kg/injection, schedule: Q04DX003 (ip), vehicle: Klucel (hydroxypropylcellulose) (HPC)
  survivor count: 0 of 6

## O=C1C=CC(=C(c2ccccc2)c2ccccc2)C=C1
dose: 75.0 mg/kg/injection, schedule: Q01DX009 (ip), vehicle: saline
  survivor count: 5 of 6
dose: 150.0 mg/kg/injection, schedule: Q01DX009 (ip), vehicle: saline
  survivor count: 2 of 6
dose: 300.0 mg/kg/injection, schedule: Q04DX003 (ip), vehicle: saline
  survivor count: 2 of 6

## CCCC[N+](C)(CC(C)C)C1CCCCCCC1 (configuration not stated)
dose: 150.0 mg/kg/injection, schedule: Q01DX001 (ip), vehicle: carboxymethylcellulose (CMC)
  survivor count: 3 of 6
dose: 300.0 mg/kg/injection, schedule: Q01DX001 (ip), vehicle: carboxymethylcellulose (CMC)
  survivor count: 2 of 6
dose: 300.0 mg/kg/injection, schedule: Q01DX001 (ip), vehicle: saline
  survivor count: 0 of 6

## CCOC(=O)c1ccc(NC(=O)Nc2c(C)n(C)n(-c3ccccc3)c2=O)cc1
dose: 400.0 mg/kg/injection, schedule: Q01DX009 (ip), vehicle: saline with Tween-80
  survivor count: 2 of 6

## CCCCCCCCCCNC(=O)CI
[1]
  survivor count: 0 of 4

## O=[N+]([O-])c1c[c]([Hg][Cl])c(O)[c]([Hg][Cl])c1
[2]
  survivor count: 3 of 6
[3]
  survivor count: 0 of 6
[4]
  survivor count: 0 of 6

## CCOP(=O)(OCC)OC(=O)N(CC)CC
dose: 400.0 mg/kg/injection, schedule: Q04DX002 (ip), vehicle: saline
  survivor count: 1 of 3

## c1cnc2ccc3c(c2c1)COCO3
dose: 200.0 mg/kg/injection, schedule: Q01DX001 (ip), vehicle: saline
  survivor count: 2 of 6
[1]
  survivor count: 0 of 6

## COc1nn(O)cc(C)c1=N
dose: 50.0 mg/kg/injection, schedule: Q04DX002 (ip), vehicle: saline with Tween-80
  survivor count: 3 of 3

## O=C(C(Br)c1ccccc1)C(Br)c1ccccc1 (configuration not stated)
[2]
  survivor count: 6 of 6
[3]
  survivor count: 0 of 6
[4]
  survivor count: 0 of 6

## Oc1cccc2ccc3cccc(O)c3c12
dose: 400.0 mg/kg/injection, schedule: Q04DX003 (ip), vehicle: alcohol
  survivor count: 0 of 6
